Measurements reported in PubChem BioAssay AID1053208 (Peter MacCallum Cancer Centre, 2014).
Assay: 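Synthetic lethal interactions between gene loss and doxorubicin in osteosarcoma cells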 (primary screen). Cell system: mouse osteosarcoma cells, early-passage culture from an engineered mouse model of fibroblastic bone tumour. Reagents: siRNA pool against mouse genes, 40 nM. Duration: about 120 h (48 h before drug, then 72 h with drug). Challenge: doxorubicin 100 nM for 72 h, roughly 30-40% inhibitory dose. Read-out: 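Luminescent ATP signal taken as viability with or without 100 nM doxorubicin for 72 h; mean of two wells set against non-targeting siRNA and turned into robust z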. Direction: viability z-score with doxorubicin and doxorubicin viability vs non-targeting: higher = more viable cells under doxorubicin; viability z-score without drug: higher = more viable cells with knock-down alone; z-score of drug to no-drug ratio: higher = less drug sensitisation by knock-down. Rule for the call: 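Called active if knock-down leaves viability unchanged without drug (z within -2 to 2) but lowers it with doxorubicin (z at or under -2)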.
The whole screen tested about 17,000 reagents; below is a part drawn at random. 788 of them (4.7%) were called active. 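Calls rest on z-score classes alone; an extra cut-off of viability at most 70% of control was not applied to them.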 Entries without a mark were called inactive.

no.	Gene	combined z-score class	viability z-score with doxorubicin	viability z-score without drug	z-score of drug to no-drug ratio	doxorubicin viability vs non-targeting
1	Gpr176 (G protein-coupled receptor 176)	no change with or without drug	-1.35	0.84	-1.8	0.82
2	Kctd6 (potassium channel tetramerisation domain containing 6)	no change with or without drug	-1.57	-0.51	-1.24	0.8
3	Bdh2 (3-hydroxybutyrate dehydrogenase, type 2)	no change with or without drug	0.9	0.34	0.79	1.02
4	Mxra8 (matrix-remodelling associated 8)	high cell count without drug only	0.67	2.7	-0.9	1
5	Tacc1 (transforming, acidic coiled-coil containing protein 1)	no change with or without drug	0.9	1.18	0.22	1.02
6	Ctr9 (CTR9 homolog, Paf1/RNA polymerase II complex component)	low cell count with doxorubicin only (active)	-2.14	-0.84	-1.69	0.75
7	Dusp28 (dual specificity phosphatase 28)	no change with or without drug	0	-1.01	0.9	0.94
8	Trhr (thyrotropin releasing hormone receptor)	no change with or without drug	-0.45	-0.17	-0.22	0.9
9	Treml4 (triggering receptor expressed on myeloid cells-like 4)	no change with or without drug	0	0.67	-0.34	0.94
10	Or4f53 (olfactory receptor family 4 subfamily F member 53)	no change with or without drug	-1.57	-1.18	-0.79	0.8
11	Nox1 (NADPH oxidase 1)	no change with or without drug	-1.01	-0.84	-0.45	0.85
12	Vmn2r1 (vomeronasal 2, receptor 1)	no change with or without drug	-1.57	-1.18	-0.79	0.8
13	Hapln1 (hyaluronan and proteoglycan link protein 1)	no change with or without drug	0.22	1.01	-0.34	0.96
14	Dnajc7 (DnaJ heat shock protein family (Hsp40) member C7)	no change with or without drug	1.12	0.17	1.12	1.04
15	Abcb4 (ATP-binding cassette, sub-family B member 4)	no change with or without drug	0.22	1.01	-0.34	0.96
16	Klf10 (Kruppel-like transcription factor 10)	no change with or without drug	-1.35	0.17	-1.46	0.82
17	Mmp12 (matrix metallopeptidase 12)	no change with or without drug	-0.56	0.17	-0.56	0.89
18	Rhoa (ras homolog family member A)	no change with or without drug	0.45	0.17	0.45	0.98

Next part (4 carried over from the part before).
no.	Gene	combined z-score class	viability z-score with doxorubicin	viability z-score without drug	z-score of drug to no-drug ratio	doxorubicin viability vs non-targeting
15	Abcb4 (ATP-binding cassette, sub-family B member 4)	no change with or without drug	0.22	1.01	-0.34	0.96
16	Klf10 (Kruppel-like transcription factor 10)	no change with or without drug	-1.35	0.17	-1.46	0.82
17	Mmp12 (matrix metallopeptidase 12)	no change with or without drug	-0.56	0.17	-0.56	0.89
18	Rhoa (ras homolog family member A)	no change with or without drug	0.45	0.17	0.45	0.98
19	Cd19 (CD19 antigen)	no change with or without drug	1.35	1.35	0.56	1.06
20	Tcp11l2 (t-complex 11 (mouse) like 2)	no change with or without drug	-0.45	0.51	-0.67	0.9
21	Hoxd3 (homeobox D3)	no change with or without drug	1.01	0	1.12	1.03
22	Ube2q1 (ubiquitin-conjugating enzyme E2Q family member 1)	no change with or without drug	-1.57	0	-1.57	0.8
23	Meaf6 (MYST/Esa1-associated factor 6)	no change with or without drug	-1.57	0.84	-2.02	0.8
24	Moxd1 (monooxygenase, DBH-like 1)	low cell count with doxorubicin only (active)	-2.25	-1.01	-1.69	0.74
25	Eif2b3 (eukaryotic translation initiation factor 2B, subunit 3)	low cell count with doxorubicin only (active)	-2.47	-1.18	-1.8	0.72
26	Vcam1 (vascular cell adhesion molecule 1)	no change with or without drug	0.34	0.17	0.34	0.97
27	Cfl2 (cofilin 2, muscle)	no change with or without drug	-1.35	-1.01	-0.67	0.82
28	Mup1 (major urinary protein 1)	no change with or without drug	-0.22	-0.84	0.45	0.92
29	Enam (enamelin)	no change with or without drug	-1.69	-0.17	-1.57	0.79
30	Or52b3 (olfactory receptor family 52 subfamily B member 3)	no change with or without drug	-1.57	-0.17	-1.46	0.8
31	Fam171b (family with sequence similarity 171, member B)	high cell count without drug only	-0.11	3.2	-1.8	0.93
32	Txlna (taxilin alpha)	no change with or without drug	-1.69	0.34	-1.91	0.79
33	Fam181b (family with sequence similarity 181, member B)	no change with or without drug	0.45	1.01	-0.11	0.98
34	Trappc3 (trafficking protein particle complex 3)	no change with or without drug	0.45	1.01	-0.11	0.98
